The other results are listed elsewhere or left out.
How the values were obtained:
Test in all cases: log2 fold change, soluble protein after heating vs DMSO (PISA); higher = thermal stabilisation; K562 lysate, 10 uM; active = over 0.2 and 3.5 SD of the protein, either way, in both replicates (recomputed)
[1] = compound: C1=CC=C(C=C1)[C@H](COC2=CC3=C(C=C2)NC(=O)N3)NC(=O)C4=CC=CN(C4=O)CC5=CC(=C(C=C5)F)F
Procedure, shortened: (§1)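 Quantification was by TMTpro 16plex LC-MS/MS with equalised channel sums, applied to the supernatant after 21,000xg for 90 min. Samples were crude K562 extract at 1 mg/mL protein in PBS pH 7.4 with 1 mM MgCl2, treated with 10 μM compound for 30 min, heated for 3 min across 48°C-58°C, pooled and brought to 0.5% NP-40 at 4°C. Values are log-two fold changes in thermal stability relative to solvent controls, from duplicates.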

Sequences of proteins named here, by UniProt entry; tags and fusion partners are left off. A change or cut given only in a name is not applied to a line headed by its entry.
UniProt P61803: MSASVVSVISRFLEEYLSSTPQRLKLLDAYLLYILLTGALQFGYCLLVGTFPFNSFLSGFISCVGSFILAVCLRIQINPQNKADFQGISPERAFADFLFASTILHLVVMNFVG
UniProt Q5TAQ9: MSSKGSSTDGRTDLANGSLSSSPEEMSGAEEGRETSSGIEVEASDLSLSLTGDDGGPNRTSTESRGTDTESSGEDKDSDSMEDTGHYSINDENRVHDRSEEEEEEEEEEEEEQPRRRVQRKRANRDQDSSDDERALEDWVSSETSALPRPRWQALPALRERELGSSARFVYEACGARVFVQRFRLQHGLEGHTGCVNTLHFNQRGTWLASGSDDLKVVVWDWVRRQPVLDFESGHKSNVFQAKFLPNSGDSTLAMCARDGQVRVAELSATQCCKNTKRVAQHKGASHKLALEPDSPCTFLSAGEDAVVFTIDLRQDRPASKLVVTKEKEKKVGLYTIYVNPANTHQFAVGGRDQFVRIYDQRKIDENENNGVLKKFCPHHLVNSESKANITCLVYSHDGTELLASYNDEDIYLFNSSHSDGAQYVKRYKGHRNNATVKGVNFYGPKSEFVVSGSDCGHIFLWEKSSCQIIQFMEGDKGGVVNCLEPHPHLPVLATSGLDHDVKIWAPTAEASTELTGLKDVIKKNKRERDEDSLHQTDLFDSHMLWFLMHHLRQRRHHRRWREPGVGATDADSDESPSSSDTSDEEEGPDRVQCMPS
UniProt Q13838, whole entry, looked up: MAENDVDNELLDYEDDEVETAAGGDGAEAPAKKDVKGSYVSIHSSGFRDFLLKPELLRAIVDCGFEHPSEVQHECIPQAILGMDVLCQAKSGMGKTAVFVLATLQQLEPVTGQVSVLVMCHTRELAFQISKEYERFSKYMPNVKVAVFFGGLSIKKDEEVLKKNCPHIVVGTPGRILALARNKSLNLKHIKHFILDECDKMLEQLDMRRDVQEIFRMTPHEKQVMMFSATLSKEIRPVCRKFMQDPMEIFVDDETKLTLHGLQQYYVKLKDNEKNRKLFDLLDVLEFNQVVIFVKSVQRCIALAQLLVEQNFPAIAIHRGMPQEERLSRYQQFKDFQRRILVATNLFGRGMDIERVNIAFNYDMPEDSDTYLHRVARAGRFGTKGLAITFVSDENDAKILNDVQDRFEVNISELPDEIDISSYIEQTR
UniProt Q6PI48: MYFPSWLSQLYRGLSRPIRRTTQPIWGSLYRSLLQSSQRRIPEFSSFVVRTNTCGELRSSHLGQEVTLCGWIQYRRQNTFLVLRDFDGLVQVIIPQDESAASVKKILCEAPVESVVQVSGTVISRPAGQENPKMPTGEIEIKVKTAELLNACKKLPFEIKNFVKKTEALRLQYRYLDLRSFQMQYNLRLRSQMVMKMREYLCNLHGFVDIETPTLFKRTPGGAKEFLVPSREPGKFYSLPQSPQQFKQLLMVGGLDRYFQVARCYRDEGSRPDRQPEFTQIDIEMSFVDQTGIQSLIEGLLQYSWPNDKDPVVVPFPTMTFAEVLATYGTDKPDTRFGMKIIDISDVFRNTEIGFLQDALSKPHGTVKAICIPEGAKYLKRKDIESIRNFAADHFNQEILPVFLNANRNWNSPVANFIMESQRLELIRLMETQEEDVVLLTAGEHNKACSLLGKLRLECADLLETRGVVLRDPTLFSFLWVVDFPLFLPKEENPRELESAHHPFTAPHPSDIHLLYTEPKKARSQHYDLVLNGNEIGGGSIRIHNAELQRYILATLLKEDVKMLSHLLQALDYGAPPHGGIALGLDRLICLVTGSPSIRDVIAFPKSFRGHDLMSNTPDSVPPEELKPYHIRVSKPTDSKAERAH
UniProt Q9GZP9: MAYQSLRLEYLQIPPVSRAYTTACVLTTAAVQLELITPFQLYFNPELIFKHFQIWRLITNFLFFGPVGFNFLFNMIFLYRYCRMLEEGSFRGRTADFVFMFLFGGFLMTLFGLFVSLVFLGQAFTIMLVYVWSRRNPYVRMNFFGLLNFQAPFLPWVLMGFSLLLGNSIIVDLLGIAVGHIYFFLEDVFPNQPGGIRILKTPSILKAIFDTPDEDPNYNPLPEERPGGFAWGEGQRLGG
UniProt Q9NR30: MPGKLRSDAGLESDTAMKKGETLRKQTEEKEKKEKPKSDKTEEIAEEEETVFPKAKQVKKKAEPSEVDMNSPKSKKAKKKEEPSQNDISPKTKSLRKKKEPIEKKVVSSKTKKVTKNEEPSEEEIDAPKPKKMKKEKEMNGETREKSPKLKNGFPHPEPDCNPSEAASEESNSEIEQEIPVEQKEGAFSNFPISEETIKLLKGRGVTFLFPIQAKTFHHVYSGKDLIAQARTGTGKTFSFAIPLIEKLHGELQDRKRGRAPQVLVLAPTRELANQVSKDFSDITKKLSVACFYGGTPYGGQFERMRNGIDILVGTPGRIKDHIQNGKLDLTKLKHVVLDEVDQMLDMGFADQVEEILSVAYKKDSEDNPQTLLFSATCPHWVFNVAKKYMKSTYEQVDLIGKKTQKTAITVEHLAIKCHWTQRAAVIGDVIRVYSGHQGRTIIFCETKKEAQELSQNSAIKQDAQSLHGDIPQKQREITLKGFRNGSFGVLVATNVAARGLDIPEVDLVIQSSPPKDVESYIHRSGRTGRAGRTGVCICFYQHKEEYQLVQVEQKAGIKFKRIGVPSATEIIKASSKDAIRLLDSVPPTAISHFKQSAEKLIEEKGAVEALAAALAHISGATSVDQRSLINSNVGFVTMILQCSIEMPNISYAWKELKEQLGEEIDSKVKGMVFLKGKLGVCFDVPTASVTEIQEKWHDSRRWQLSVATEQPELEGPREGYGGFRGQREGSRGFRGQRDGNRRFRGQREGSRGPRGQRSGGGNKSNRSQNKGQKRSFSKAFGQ
UniProt O00148, whole entry, looked up: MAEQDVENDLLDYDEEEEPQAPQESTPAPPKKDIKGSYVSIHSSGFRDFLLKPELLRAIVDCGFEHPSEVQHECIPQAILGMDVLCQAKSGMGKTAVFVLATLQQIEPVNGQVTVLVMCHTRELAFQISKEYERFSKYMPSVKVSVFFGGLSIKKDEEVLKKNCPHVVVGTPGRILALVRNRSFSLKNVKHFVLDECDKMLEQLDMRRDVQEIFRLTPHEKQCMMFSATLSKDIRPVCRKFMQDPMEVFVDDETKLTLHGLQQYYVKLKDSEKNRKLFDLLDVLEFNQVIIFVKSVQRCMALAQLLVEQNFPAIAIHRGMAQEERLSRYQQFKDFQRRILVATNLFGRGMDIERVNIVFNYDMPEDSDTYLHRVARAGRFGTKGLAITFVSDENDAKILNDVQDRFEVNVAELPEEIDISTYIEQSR
UniProt P51397: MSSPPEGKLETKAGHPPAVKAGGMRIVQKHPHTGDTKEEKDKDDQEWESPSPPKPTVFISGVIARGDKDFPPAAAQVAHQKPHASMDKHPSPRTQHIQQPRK
UniProt P61962: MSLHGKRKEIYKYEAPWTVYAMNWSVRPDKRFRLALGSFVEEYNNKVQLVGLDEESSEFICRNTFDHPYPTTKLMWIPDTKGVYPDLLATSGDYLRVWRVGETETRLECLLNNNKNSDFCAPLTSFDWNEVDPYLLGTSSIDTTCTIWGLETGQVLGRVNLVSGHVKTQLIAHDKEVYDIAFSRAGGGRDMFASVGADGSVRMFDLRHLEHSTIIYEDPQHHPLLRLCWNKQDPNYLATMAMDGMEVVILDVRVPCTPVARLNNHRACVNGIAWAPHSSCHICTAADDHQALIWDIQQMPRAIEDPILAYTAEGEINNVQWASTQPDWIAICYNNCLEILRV

[2] = compound: CC1=C(SC2=C1C(=N[C@H](C3=NN=C(N32)C)CC(=O)N)C4=CC=C(C=C4)Cl)C
Procedure, shortened: as §1

[3] = compound: CC1=C2C(=CC=C1)N=C(N(C2=O)C3=CC=CC=C3C)CN4C=NC5=C(N=CN=C54)N
Procedure, shortened: as §1

[4] = compound: Cc1sc2c(c1C)C(c1ccc(Cl)cc1)=N[C@@H](CC(=O)OC(C)(C)C)c1nnc(C)n1-2
Procedure, shortened: as §1

[5] = compound: c1ccc([C@@H]2C[C@H]2NC2CCNCC2)cc1
Procedure, shortened: as §1

Measured: log2 fold change

DAD1 (UniProt P61803)
inactive: [1] -0.171 | [2] -0.041 | [3] 0.278 | [4] -0.38 | [5] -0.023

DCAF8 (UniProt Q5TAQ9)
inactive: [1] 0.016 | [2] -0.007 | [3] -0.035 | [4] 0.007 | [5] -0.028

DDX39B isoform 2 (UniProt Q13838)
inactive: [1] -0.012 | [2] 0.026 | [3] -0.016 | [4] 0.024 | [5] 0.001

DARS2 (UniProt Q6PI48)
inactive: [1] 0.036 | [2] 0.014 | [3] 0.041 | [4] 0.019 | [5] 0.023

DERL2 (UniProt Q9GZP9)
inactive: [1] -0.115 | [2] 0.009 | [3] -0.065 | [4] -0.099 | [5] 0.158

DDX21 (UniProt Q9NR30)
inactive: [1] 0.018 | [2] 0.03 | [3] 0.033 | [4] -0.017 | [5] 0.038

DDX39A (UniProt O00148)
inactive: [1] -0.022 | [2] -0.018 | [3] 0.02 | [4] -0.016 | [5] 0

DAP (UniProt P51397)
inactive: [1] 0.035 | [2] -0.041 | [3] 0.011 | [4] -0.055 | [5] -0.035

DCAF7 (UniProt P61962)
inactive: [1] -0.012 | [2] -0.004 | [3] -0.024 | [4] 0.046 | [5] 0
